The entries are a selection whose mix differs from that of the whole data set. Activity calls are given as the source filed them.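 How the source made its calls: active means activation above the all-compound mean plus 3 SD, ignoring values outside control-based bounds (cut at about 4.8% in these data); inactive means the rest.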

The nature of this test: EDANS-DABCYL substrate optical interference, artefact control for kallikrein-7 zymogen activator project, biochemical, fluorescence intensity, high throughput (AID 686952).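 Further: value is the 4 h activation minus the activation read at time zero.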 The settings on record: no enzyme, 4 h, at 7 µM, stronger effect = higher value, solvent 0%, active enzyme control 100%.
Consider `Oc1ccc2ccccc2c1CNc1cnc2ccccc2c1`, for which the activation is active: 68.7%. For the compound `COC(=O)COc1ccc2cc(-c3ccc(OC)cc3)c(=O)oc2c1`, the activation is active: 73.2%.

Values taken from PubChem BioAssay AID686952 (The Scripps Research Institute Molecular Screening Center, 2013).
